# Source: PubChem BioAssay AID493014 (National Center for Advancing Translational Sciences (NCATS), 2011)
# The campaign covered roughly 340,000 compounds. About 170 (0.05%) were called active. Inconclusive results, whose numbers are uncertain, are shown with a selection of clear calls. The call rests on the fitted dose curve; in most records, active means well fitted inhibition curve with a large enough effect in the signal ratio, with a control signal flat (not every such curve was filed as active); inconclusive means small, poorly fitted or top-dose-only effect, or effect the other way, or a change in a side signal; inactive means flat fitted curve, though single readings scatter; the % refers to the signal ratio. A potency beside an inconclusive call is a rough fit, not a confirmed value.
# Assay: qHTS Assay to Find Inhibitors of Chronic Active B-Cell Receptor Signaling;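 on activity change, negative = inhibition: plate controls were basal doxycycline-induced cells for no effect and cells given 10 µM MG132 for full effect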
# Details: ABC-DLBCL IkBa-CBG/CBR reporter, luminescence ratio (green luciferase fused to IkBa over red control in TMD8 lymphoma cells), 4 h; activity change, negative = inhibition: at 46.1 µM (top of the series)
# In short: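 TMD8 ABC-DLBCL cells carrying doxycycline-inducible green luciferase fused to IkappaBalpha plus unfused red luciferase were exposed to compounds (up to 46 uM) for 4 hrs at 37C. Activity came from the overlap-corrected green/red luminescence ratio.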
# Potency means the concentration at half of the fitted maximal effect.
Structure (SMILES),Potency,"activity change, negative = inhibition"
COc1ccc(-n2c(-c3ccc(Cl)cc3)c[nH]c2=S)cc1,"inconclusive: 17.8 µM [falling, partial curve]",
N#CC(C#N)=Cc1ccc(-c2ccc(S(=O)(=O)N=C(N)N)cc2)o1,"inconclusive: 23.1 µM [falling, single point]",
O=C(Nc1cccc(Cl)c1)Nc1nnc(-c2ccncc2)s1,,inactive: 4.74%
Cc1ccc(C)c(N(CC(=O)NCc2ccco2)C(=O)CCC(=O)Nc2ccccn2)c1,"inconclusive: 6.51 µM [falling, single point]",
O=C(NCCCN1CCCC1=O)c1cccc(S(=O)(=O)Nc2ccc(Br)cc2)c1,,inactive: 3.2%
COc1cc(OC)c(C2Oc3nc(SC)nnc3-c3ccccc3N2C(C)=O)cc1OC (stereo not drawn),"inconclusive: 0.731 µM [falling, full curve, poor fit]",
Cn1nc(OCc2ccccc2)ccc1=O,,inconclusive: -11.1%
CSc1nc(C)cc(OCCO)n1,"inconclusive: 7.31 µM [falling, partial curve]",
Cc1ccc(S(=O)(=O)N2CCOCC2)cc1N/N=C(\C#N)c1nc2ccccc2[nH]1,"inconclusive: 18.4 µM [rising, partial curve]",
COc1cc2cc(CN(C(=O)Nc3ccccc3)C3CCCC3)c(=O)[nH]c2cc1OC,,inconclusive: -5.01%
N/C(=N\OC(=O)/C=C/c1ccc(Br)cc1)c1ccccn1,,inconclusive: -6.12%
Cc1csc(=O)n1CCC(=O)OCC(=O)NNC(=O)c1ccc(Br)cc1,,inconclusive: 4.94%
O=C(N/N=C/c1c(Cl)cccc1Cl)c1n[nH]c2c1CCCC2,"inconclusive: 16.4 µM [falling, partial curve, poor fit]",
Cc1ccc(Cl)cc1NC(=O)c1cccc(OC(F)F)c1,"inconclusive: 2.06 µM [falling, full curve]",
Cc1ccc(S(=O)(=O)CC(C)(O)CS(=O)(=O)c2ccc(C)cc2)cc1,,inconclusive: -1.14%
O=C(NCc1ccco1)c1cc(-c2ccncc2)nc2ccccc12,,inconclusive: -1.65%
O=C(O)c1cc(-c2ccc(Br)s2)nc2ccccc12,,inactive: 1.54%
CNC(=S)NCCc1c[nH]c2ccc(OC)cc12,,inactive: -1.63%
Cc1ccc(Nc2cc(-n3nc(C)cc3C)ncn2)cc1,,inactive: 16.3%
C=CCn1c(O)c(N=Nc2ccccc2O)c2ccccc21,,inactive: 4.03%
Cc1cccc(OCC(=O)Nc2nccs2)c1C,,inconclusive: 0.963%

Structure (SMILES),Potency,"activity change, negative = inhibition"
O=C(COc1ccc(F)cc1)NCC1(N2CCOCC2)CCCCC1,,inconclusive: -2.02%
Cc1cnc(CN2CCc3c([nH]c4ccccc34)C2CC(C)C)[nH]1 (stereo not drawn),,inconclusive: -7.84%
Cc1cc([N+](=O)[O-])nn1Cc1ccccc1F,,inconclusive: -8.53%
COc1ccc(CC2(CO)CCN(Cc3cccc(OC)c3OC)CC2)cc1,,inconclusive: -4.73%
COc1ccccc1CNC(=O)CSc1ccc(C)cc1,,inconclusive: -19.6%
N#C/C(=C\c1cn[nH]c1-c1ccc(Cl)cc1)C(=O)NCc1ccccc1,,inconclusive: 8.68%
Cc1cc(F)ccc1S(=O)(=O)N1CCCOC1CNC(=O)C(=O)NC1CCCCC1 (stereo not drawn),,inconclusive: -8.69%
Cc1cccn2c(=O)c(C=O)c(N3CCCCC3)nc12,,inactive: 5.49%
COc1cccc(/C=C/C(=O)N2CCN(c3ccccn3)CC2)c1,"inconclusive: 20 µM [falling, single point]",
O=C(/C=C/NNC(=O)c1ccccc1)c1ccc(Br)cc1,"inconclusive: 4.61 µM [falling, partial curve]",
CN(Cc1cccnc1)Cc1cn(C)nc1-c1cccc(Cl)c1,,inactive: -0.147%
O=C(c1ccco1)N1N=C(c2ccc(Cl)cc2)CC1(O)C(F)(F)F (stereo not drawn),,inactive: 0.96%
COc1ccc(C(CC(=O)Nc2nccs2)n2cccc2)cc1 (stereo not drawn),,inconclusive: -20%
CN(C)CCNC(=O)c1ccc(COc2ccc(Cl)cc2Cl)cc1,,inconclusive: -2.21%
O=C(NNc1nc2c(F)cccc2s1)c1ccccc1,"inconclusive: 22.4 µM [falling, single point]",
O=c1c2ccccc2cnn1-c1ccc2ccccc2c1,"inconclusive: 29.1 µM [falling, single point]",
COc1ccc(N2CC(C(=O)N[C@@H](C)C(=O)NCCc3ccccc3)CC2=O)cc1 (stereo partly drawn),,inactive: 16.3%
Clc1cccc(Oc2cnns2)c1Cl,,inactive: -3%
CC(C)Cc1nnc(NC(=O)Cc2ccc([N+](=O)[O-])cc2)s1,,inconclusive: 5.37%
CC(=O)Nc1ccc2nc(SCC(=O)Nc3ccc(N4CCOCC4)c(Cl)c3)sc2c1,"inconclusive: 35.5 µM [falling, single point]",
COc1ccc(C2=Nc3nc(-c4ccccc4)cn3C(c3ccc(OC)cc3)C2)cc1 (stereo not drawn),,inactive: 4.47%

Structure (SMILES),Potency,"activity change, negative = inhibition"
CCc1cccc(CC)c1NC(=O)CSc1nc2ccc(N3C(=O)C4C(C3=O)[C@H]3C=C[C@@H]4C3)cc2s1 (stereo partly drawn),,inconclusive: 16.3%
CN(C)C1N(C(=O)c2ccccc2)N=C2c3ccccc3S(=O)(=O)N21 (stereo not drawn),,inconclusive: 11.9%
N#CC1=C(N)Oc2c(ccc3ccccc23)C1c1cccs1 (stereo not drawn),,inactive: 6.69%
CCOC(=O)c1cc(CC)sc1NC(=O)Cc1ccccc1,"inconclusive: 18.4 µM [rising, single point]",
COc1ccc(NC(=O)CN(C)CC(=O)N2CCCCCC2)cc1,,inactive: 4.62%
O=C(Nc1ccc(F)c(Cl)c1)Nc1csc2ccccc12,,inconclusive: 4.24%
COc1cc(NC(=O)c2ccco2)c(C(=O)OCC(=O)c2c[nH]c3ccccc23)cc1OC,,inactive: 0.285%
Cc1cc(N2CCCCC2)ccc1[N+](=O)[O-],,inconclusive: 11.3%
CCOc1cccc(-c2nnc3sc(-c4cc(OC)c(OC)cc4OC)nn23)c1,,inconclusive: 0.695%
CCSc1ccc(-c2ccc(C)cc2)nn1,,inactive: -13.6%
CCOC(=O)c1cnc(SC)nc1Sc1cc(Cl)ccc1Cl,,inconclusive: -1.07%
Cc1ccc(-c2nnc(CSc3nc4cc5c(cc4cc3C)OCO5)o2)cc1,,inactive: 2.73%
Clc1ccc(N2CCN(/N=C/c3ccncc3)CC2)cc1,,inconclusive: 11.6%
CCOc1ccccc1NC(=O)Nc1ccsc1C(=O)OC,,inconclusive: 0.81%
Cn1c(CSCc2ccc(Cl)c(Cl)c2)n[nH]c1=S,,inactive: -17.7%
C/C(=N/NS(=O)(=O)c1ccc(Cl)cc1)c1cccc(NC(=O)c2ccncc2)c1,"inconclusive: 25.1 µM [falling, single point]",
CN(Cc1ccccc1)C(=O)COc1ccc(N(C)S(=O)(=O)c2ccc(F)cc2)cc1,,inconclusive: -0.0917%
CCC(CC)C(=O)Nc1cccc(C(=O)Nc2nnc(C)s2)c1,,inconclusive: -2.12%
O=C(CN1CC[C@@]2(O)CCCC[C@H]2[C@@H]1c1ccc(F)cc1)NCc1ccco1,,inconclusive: -3.39%
Cc1cccc(NC(=O)CN(C2=NC3CS(=O)(=O)CC3S2)c2ccccc2F)c1 (stereo not drawn),,inconclusive: -19.8%
CCOc1ccccc1Nc1nnc(SCC(=O)Nc2cccc(S(=O)(=O)NC3=NCCCCC3)c2)s1,"inconclusive: 11.6 µM [falling, partial curve]",

# Random excerpt: 4 records from the list, in no set order.
Structure (SMILES),Potency,"activity change, negative = inhibition"
CCSc1ccc(-c2ccc(C)cc2)nn1,,inactive: -13.6%
CCOc1ccccc1Nc1nnc(SCC(=O)Nc2cccc(S(=O)(=O)NC3=NCCCCC3)c2)s1,"inconclusive: 11.6 µM [falling, partial curve]",
O=C(CN1CC[C@@]2(O)CCCC[C@H]2[C@@H]1c1ccc(F)cc1)NCc1ccco1,,inconclusive: -3.39%
COc1ccc(NC(=O)CN(C)CC(=O)N2CCCCCC2)cc1,,inactive: 4.62%

# Following part.

Structure (SMILES),Potency,"activity change, negative = inhibition"
CCOC(=O)c1cnn(Cc2cccc(Cl)c2)c1C,,inconclusive: 2.93%
CN(C)c1ccc(/C=C/C#N)cc1,,inconclusive: 0.597%
CCOC(=O)c1c(NC(=O)COc2cccc3c2CCN(C)C3=O)sc2c1CCC2,,inconclusive: 2.26%
CN(C)/N=C/C=C1\CC/C(=C\c2ccc(Br)cc2)C1=O,"inconclusive: 13 µM [falling, partial curve, poor fit]",
CCS(=O)(=O)N1CCC(C(=O)Nc2ccc3c(c2)CCC3)CC1,,inactive: -4.34%
O=C(Nc1ccc(Cl)c([N+](=O)[O-])c1)Nc1nc2ccccc2s1,,inconclusive: 14.4%
O=C(O)c1c(C(=O)N2N=C3/C(=C/c4ccccc4)CCCC3C2c2ccccc2)cccc1[N+](=O)[O-] (stereo not drawn),,inconclusive: -15.8%
COC(=O)CNC(=O)CN1C(=O)N(c2ccc(Cl)cc2)C(N(O)C(=O)Nc2ccc(Cl)cc2)C1(C)C (stereo not drawn),,inconclusive: 13.7%
Cc1ccc(S(=O)(=O)N2CCN(Cc3nnc(-c4c(-c5ccccc5)noc4C)o3)CC2)cc1,,inactive: -2.93%
O=C(N/N=C/c1ccc2c(c1)OCO2)c1ccn(Cc2ccc(Cl)cc2)n1,"inconclusive: 1.58 µM [falling, full curve]",
CN1/C(=C\C(=O)CN2C(=O)NC3(CCCCCC3)C2=O)C(C)(C)c2ccccc21,,inconclusive: -20.9%
Cc1ccc2c(C)c(C(=O)N(Cc3ccncc3)CC3CCCO3)oc2c1C (stereo not drawn),,inactive: 0.471%
Cc1ccccc1NC(=O)/C(C#N)=C/c1ccc(-c2ccc(Cl)c(C(=O)O)c2)o1,,inactive: 7.7%
CCOc1cc(C2/C(=C(/O)c3ccc(OC)cc3)C(=O)C(=O)N2CC2CCCO2)ccc1O (stereo not drawn),"inconclusive: 35.5 µM [falling, single point]",
Clc1ccc(OCCN2CCCCC2)c(Cl)c1,,inconclusive: 13.2%
CC(=O)c1ccc(NC(=O)c2noc3c2CCCCC3)cc1,"inconclusive: 29.1 µM [falling, partial curve, poor fit]",
CC(C)n1c(C(=O)OCC(=O)NCc2ccc3c(c2)OCO3)cc2sccc21,"inconclusive: 22.4 µM [falling, single point]",
CCn1c(N)c(C(=O)NCc2ccc3c(c2)OCO3)sc1=S,"inconclusive: 23.1 µM [falling, partial curve]",
Cc1ccc(SC[C@H](C)CN2CC[C@H](C(C)(C)C)CCC2=O)cc1,,inactive: 20.6%
Cc1cc(/C=C2/C(=O)NN(c3ccccc3)C2=O)c(C)n1-c1ccc(O)cc1,,inconclusive: -5.96%
